Screen size: about 220,000 compounds; about 2,400 (1.1%) were called active. Inconclusive results, whose numbers are uncertain, are shown with a selection of clear calls. Calls follow the shape of the dose curve; as a rule, active = well fitted inhibition curve with a large enough effect; inconclusive = small, poorly fitted or top-dose-only effect, or effect the other way; inactive = no such curve, though single readings can be large or run the other way. Where the call is inconclusive, the potency comes from a doubtful curve fit.
Test: qHTS Multiplex Assay to Identify Dual Action Probes in a Cell Model of Huntington: Aggregate Formation (GFP); also: nearly all actives have a fitted effect of over 60% in size
Conditions: PC12 HttQ103-GFP aggregates, Acumen cytometry, 40 h; activity change, negative = inhibition: at 46.1 µM (top of the series) unless noted
Method in brief: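 Ecdysone-promoter PC12 model expressing HTT exon 1 Q103 fused to GFP, induced by tebufenozide at 100 nM final. Compounds titrated; aggregates sized 1–25 µm scored on a 488 nm laser cytometer.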
% is scaled to controls: 0 for no effect and ±100 for the full control effect; potency is read from the fitted curve at half-maximal effect.

Question: Which Potency does the source give for `COc1cc(/C=C(\C#N)c2ccccn2)ccc1OCC(=O)Nc1ccc(Br)cc1` here?
Answer: inconclusive: 2.82 µM [inhibitor, single point]

Question: With `N#CC1=C2C=CC=CN2CC1=O` as the molecule, how does the Potency read?
Answer: inactive

Question: For `COC(=O)C1CCN(C(=O)c2cc3ccccc3oc2=O)CC1`, which Potency is on record?
Answer: inconclusive: 5.62 µM [inhibitor, single point]

Question: With `CCCN1CCC(=NNC(=O)c2ccc(Br)o2)CC1` as the molecule, how does the Potency read?
Answer: inactive

Question: With `CCC(Sc1nc(C)cc(=O)[nH]1)C(=O)Nc1sc2c(c1C#N)CCCC2` (stereo not drawn) as the molecule, how does the Potency read?
Answer: inconclusive: 11.2 µM [inhibitor, single point]

Question: With `O=C(NNC(=O)c1ccccc1O)c1ccc(Cl)cc1` as the molecule, how does the Potency read?
Answer: inconclusive: 12.6 µM [inhibitor, partial curve]

Question: With `Cc1ccccc1OCC(=O)Nc1ccc(N2CCN(S(C)(=O)=O)CC2)cc1` as the molecule, how does the Potency read?
Answer: inconclusive: 1.58 µM [activator, full curve, poor fit]

Question: For `O=C(Nc1ncc(Cc2ccc(SC(F)F)cc2)s1)c1ccc(OC(F)F)cc1`, which Potency is on record?
Answer: inactive

Question: With `O=C(NCc1cccs1)c1cnc(Cl)c(Cl)c1` as the molecule, how does the Potency read?
Answer: inactive

Question: With `CC(C)Nc1ncnc2ccc(Br)cc12` as the molecule, how does the Potency read?
Answer: active: 6.31 µM

Question: For `Clc1ccc(-c2ccc(/C=N/Nc3cc(N4CCOCC4)nc(N4CCOCC4)n3)o2)cc1`, which Potency is on record?
Answer: inconclusive: 35.5 µM [inhibitor, single point]

Question: Which Potency does the source give for `N#CC1=C(N)SC(N)=C(C#N)C1CCc1ccccc1` here?
Answer: inconclusive: 22.4 µM [inhibitor, single point]

Question: Which Potency does the source give for `CCCOc1ccc(C(=O)NNC(=S)NC(=O)CC)cc1` here?
Answer: inconclusive: 12.6 µM [inhibitor, partial curve]

Question: Which Potency does the source give for `CC(=O)Nc1ccc(NC(=O)c2ccco2)cc1` here?
Answer: inactive

Question: For `O=C(O)c1cn(-c2ccc(F)c(F)c2)c2c(F)c(F)c(F)c(F)c2c1=O`, which Potency is on record?
Answer: inconclusive: 22.4 µM [inhibitor, single point]

Question: With `c1ccc(CCNc2ccnc3cc4ccccc4cc23)cc1` as the molecule, how does the Potency read?
Answer: inconclusive: 7.08 µM [inhibitor, partial curve]

Question: With `c1ccc(CN2CCC(Nc3ncnc4sccc34)CC2)cc1` as the molecule, how does the Potency read?
Answer: active: 10 µM

Question: For `O=C(Nc1ccc(N2CCN(C(=O)c3cccs3)CC2)c(Cl)c1)c1ccco1`, which Potency is on record?
Answer: inactive

Question: For `O=C1COc2ccc(C(=O)CSc3nnc(-c4cccs4)n3Cc3ccccc3)cc2N1`, which Potency is on record?
Answer: inactive

Question: With `COc1ccc(N2CCC(CNC(=O)Nc3ccc(Cl)cc3)C2)cc1` (stereo not drawn) as the molecule, how does the Potency read?
Answer: inconclusive: 35.5 µM [inhibitor, single point]

Question: Which activity change, negative = inhibition does the source give for `COc1ccc2[nH]c3c(=S)nc[nH]c3c2c1` here?
Answer: inactive: 5.14% [at 9.22 µM]

Question: For `COc1ccc(-c2nc(C#N)c(NCCCn3ccnc3)o2)cc1OC`, which Potency is on record?
Answer: inactive

Question: Which Potency does the source give for `Cc1cccc(C)c1OCC(=O)N/N=C/C=C/c1ccco1` here?
Answer: inconclusive: 22.4 µM [activator, single point]

Question: For `O=[N+]([O-])c1cccc(/C=N/n2cnnc2)c1O`, which Potency is on record?
Answer: inconclusive: 0.708 µM [activator, partial curve]

Question: With `Cc1ccc(OCC(=O)Nc2cc(S(=O)(=O)N3CCCCC3)ccc2C)c([N+](=O)[O-])n1` as the molecule, how does the Potency read?
Answer: inconclusive: 31.6 µM [activator, single point]

Question: For `CCn1cc(/C=C/C(=O)NCc2c(C)nn(C)c2C)cn1`, which Potency is on record?
Answer: inactive

Question: Which Potency does the source give for `Cc1ccccc1C(=O)N1CCCN(C(=O)c2ccccc2C)CC1` here?
Answer: inconclusive: 12.6 µM [inhibitor, single point]

Question: Which Potency does the source give for `Cc1ccc(N2CC(C(=O)N3CCc4ccccc4C3)CC2=O)cc1` (stereo not drawn) here?
Answer: inconclusive: 1.26 µM [activator, partial curve]

Question: For `Cc1ccc(-n2c(C)cc(C(=O)COc3cccnc3[N+](=O)[O-])c2C)cc1`, which Potency is on record?
Answer: inconclusive: 25.1 µM [activator, single point]

Question: With `Cc1nonc1C1CCCN1Cc1cn[nH]c1-c1ccc2c(c1)OCO2` (stereo not drawn) as the molecule, how does the Potency read?
Answer: inconclusive: 12.6 µM [inhibitor, single point]

Question: With `O=C(O)CCCn1cc(NC(=O)c2ccc(Br)o2)cn1` as the molecule, how does the Potency read?
Answer: inactive

Question: Which Potency does the source give for `COc1ccccc1CN1CCN(C(=O)c2ccncc2)CC1` here?
Answer: inconclusive: 1.41 µM [inhibitor, partial curve]

Question: With `O=C(CSc1nc2ccccc2c(=O)n1Cc1ccco1)N1CCCCCC1` as the molecule, how does the Potency read?
Answer: inconclusive: 11.2 µM [inhibitor, partial curve]

Question: Which Potency does the source give for `O=C(c1ccco1)[C@@H]1[C@@H]2C(=O)N(c3ccccc3)C(=O)[C@@H]2C2c3ccccc3C=CN21` (stereo partly drawn) here?
Answer: inconclusive: 11.2 µM [activator, partial curve]

Question: Which Potency does the source give for `O=C(N=Nc1ccc(NOC(=O)c2ccccc2Br)cc1)c1ccccc1O` here?
Answer: inconclusive: 15.8 µM [inhibitor, single point]

Question: For `Cc1ccc(CSc2nc3c(c(N(C)C)n2)CCCC3)cc1`, which Potency is on record?
Answer: inconclusive: 35.5 µM [inhibitor, single point]

Question: Which activity change, negative = inhibition does the source give for `COCCNC(=O)c1cc2cc(Cl)cc(Cl)c2oc1=O` here?
Answer: inactive: -20.5% [at 9.22 µM]

Question: For `COc1ccc(NC(=O)N2CCN(S(C)(=O)=O)CC2)c(OC)c1`, which activity change, negative = inhibition is on record?
Answer: inactive: 1.9% [at 9.22 µM]

Question: Which activity change, negative = inhibition does the source give for `CN1/C(=C\C=C2/SC(=S)N(CC(=O)O)C2=O)C(C)(C)c2ccccc21` here?
Answer: inactive: -40.1% [at 9.22 µM]

Question: For `COc1ccc(/C=C/c2nc3ccccc3n2Cc2ccc(OC)c(OC)c2)cc1`, which Potency is on record?
Answer: inconclusive: 3.55 µM [activator, partial curve, poor fit]

Question: For `Cc1cc(N2C(=O)C(O)=C(C(=O)c3cccs3)C2c2ccc(F)cc2)no1` (stereo not drawn), which activity change, negative = inhibition is on record?
Answer: inactive: 14.5% [at 9.22 µM]

Question: With `Cc1ccc(N(C(=O)Cn2nnc(-c3ccc(F)cc3)n2)C(CC(C)C)C(=O)NCC2CCCO2)cc1` (stereo not drawn) as the molecule, how does the Potency read?
Answer: inconclusive: 1.26 µM [inhibitor, single point]

Question: Which Potency does the source give for `Cc1cc(C)cc(N(C(=O)c2snc(C(N)=O)c2N)C(C(=O)NCC2CCCO2)c2cccs2)c1` (stereo not drawn) here?
Answer: inconclusive: 17.8 µM [inhibitor, single point]

Question: With `COc1ccc(CC2(CO)CCN(C/C=C/c3ccccc3OC)CC2)cc1` as the molecule, how does the activity change, negative = inhibition read?
Answer: inactive: -27.1% [at 9.22 µM]

Question: For `NC(=O)c1c(N)sc2c1CCC2`, which activity change, negative = inhibition is on record?
Answer: inactive: -18% [at 9.22 µM]

Question: For `O=C(N/N=C/c1cn(-c2ccccc2)nc1-c1cccs1)c1ccc(Cl)cc1`, which Potency is on record?
Answer: active: 11.2 µM

Question: For `O=c1cc(NCc2ccccc2)c2ccccc2o1`, which Potency is on record?
Answer: inconclusive: 35.5 µM [inhibitor, partial curve]

Question: With `Cc1nnc(SCc2nc3sc4c(c3c(=O)[nH]2)CCCC4)n(N)c1=O` as the molecule, how does the activity change, negative = inhibition read?
Answer: inactive: -4.82% [at 9.22 µM]

Question: Which Potency does the source give for `Cc1oc2ccc(O)cc2c1C(=O)c1ccc(Cl)cc1` here?
Answer: inconclusive: 15.8 µM [inhibitor, partial curve, poor fit]

Question: For `Cc1cc(C=O)c(C)n1-c1ccc(Oc2ccc([N+](=O)[O-])cn2)cc1`, which Potency is on record?
Answer: active: 22.4 µM

Question: With `Cc1nc(NC(=O)CSc2nc3cccnc3n2C2CCCCC2)sc1C` as the molecule, how does the Potency read?
Answer: inactive

Question: For `CC(C)c1ccc(/C=N/N2CCN(c3ccccn3)CC2)cc1`, which activity change, negative = inhibition is on record?
Answer: inactive: -3.47% [at 9.22 µM]

Question: For `COCCNC(=O)CCc1nnc(Cc2ccc(-c3ccccc3)cc2)o1`, which activity change, negative = inhibition is on record?
Answer: inactive: 4.96% [at 9.22 µM]

Question: Which Potency does the source give for `COc1cc2c(cc1OC)CN(Cc1nc3ccsc3c(=O)[nH]1)CC2` here?
Answer: active: 3.98 µM

Question: Which Potency does the source give for `C(=N\c1ncnc2sccc12)/NOCc1ccccc1` here?
Answer: inconclusive: 35.5 µM [inhibitor, single point]

Question: For `CCC1SC2=NCN(c3ccccc3)CN2C1=O` (stereo not drawn), which Potency is on record?
Answer: inactive

Question: With `Cc1nn(-c2ccccc2)c(C)c1NC(=O)CCl` as the molecule, how does the Potency read?
Answer: inconclusive: 20 µM [inhibitor, partial curve, poor fit]

Question: For `COc1cc(C(=O)Nc2ccccc2N2CCOCC2)ccc1OCc1c(C)noc1C`, which Potency is on record?
Answer: inconclusive: 11.2 µM [activator, single point]

Question: With `Clc1ccc(-c2c[n+]3c(n2-c2ccccc2)SCC3)cc1` as the molecule, how does the Potency read?
Answer: inconclusive: 25.1 µM [inhibitor, single point]

Question: Which Potency does the source give for `CCCNS(=O)(=O)c1ccc(CCC(=O)N2CCN(c3ccc(OC)cc3)CC2)cc1` here?
Answer: inconclusive: 35.5 µM [inhibitor, single point]

Question: For `C/C(=N/NC(=O)CNC(=O)c1ccccn1)c1ccccc1`, which Potency is on record?
Answer: inactive

Question: With `CC1=Nc2ccccc2N=C(NC(=O)/C=C/C(=O)O)C1c1ccccc1` (stereo not drawn) as the molecule, how does the Potency read?
Answer: inconclusive: 0.891 µM [inhibitor, single point]

Question: Which activity change, negative = inhibition does the source give for `N#CNC(=Nc1cccc(Cl)c1)Oc1ccccc1` here?
Answer: inactive: -3.29% [at 9.22 µM]

Question: With `CS(=O)(=O)N1CCN(C(=O)c2c(F)cccc2F)CC1` as the molecule, how does the Potency read?
Answer: inconclusive: 0.447 µM [inhibitor, partial curve]

Question: With `COc1ccccc1Oc1ccccc1C(=O)O` as the molecule, how does the Potency read?
Answer: inconclusive: 0.562 µM [inhibitor, full curve]

Question: With `CC(=O)N(C1=C(Cl)C(=O)c2ccccc2C1=O)C1CCCCC1` as the molecule, how does the Potency read?
Answer: inconclusive: 5.62 µM [inhibitor, single point]

Question: Which Potency does the source give for `COc1ccc(NC2=C(c3ccc(OC)cc3)C(=O)c3ccccc32)cc1` here?
Answer: inactive

Question: Which Potency does the source give for `O=C(Nc1cccn(Cc2c(Cl)cccc2Cl)c1=O)c1ccccc1Cl` here?
Answer: inconclusive: 8.91 µM [inhibitor, partial curve]

Question: For `O=C(NCc1cccnc1)c1ccc(CN2CCc3ccccc3C2)cc1`, which Potency is on record?
Answer: inactive

Question: With `CCOc1cc(N2CCOCC2)c(OCC)cc1NC(=O)c1ccc2ccccc2n1` as the molecule, how does the Potency read?
Answer: inconclusive: 35.5 µM [inhibitor, single point]

Question: Which activity change, negative = inhibition does the source give for `CCN1CCN(Cc2ccc(NC(=O)c3cc(NC(=O)C(=O)c4c[nH]c5ccccc45)cc(OC)c3)cc2C(F)(F)F)CC1` here?
Answer: inactive: -13.2% [at 9.22 µM]

Question: Which Potency does the source give for `Cc1cc(C(=O)OCC(=O)NCCC(C)C)c2ccccc2n1` here?
Answer: inconclusive: 1.12 µM [inhibitor, single point]

Question: With `C=CCc1cccc(/C=N/NC(=O)CNc2ccccc2OC)c1O` as the molecule, how does the Potency read?
Answer: active: 20 µM
